Experimental findings from PubChem BioAssay AID1458 (National Center for Advancing Translational Sciences (NCATS), 2008) are described below.

Structures are written as SMILES. Out of some 210,000 compounds screened, about 5,900 (2.8%) were called active. About 5% were inconclusive and are not listed. Calls follow the shape of the dose curve; as a rule, active = well fitted activation curve with a large enough effect; inconclusive = small, poorly fitted or top-dose-only effect; inactive = no such curve, though single readings can be large or run the other way. The entries are a selection whose mix differs from that of the whole data set. Entries without a call were filed so in the source.
Potency is read from the fitted curve at half-maximal effect.

This experiment can be described thus: qHTS Assay for Enhancers of SMN2 Splice Variant Expression. Also: nearly all actives have a fitted effect of over 55% in size. As to activity change, positive = activation: % of control where 0% means no effect. The settings on record: HEK293 SMN2-luciferase splicing reporter, luminescence, 30-36 h; activity change, positive = activation: at 46.1 µM (top of the series) unless noted. In short, it runs like this:
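HEK293 cells carry an SMN2 minigene-luciferase reporter in which exon 7 inclusion puts luciferase in frame. Cells were seeded at 2000 cells/well, attached for 10-12 hours, then exposed to compounds for 30-36 hours at 37C before ONE-Glo luminescence.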
Consider `Cc1cccc(NCc2cc(Cl)ccc2O)n1`, for which the activity change, positive = activation was -50.2%. On the same count and under the same terms, the value for `Cc1ccc(CNC(=O)CCCCn2c(=O)c3ccccc3n(Cc3c(C)cc(C)cc3C)c2=O)cc1` was inactive: -6.63%; that for `CCCCCn1c(Sc2nc3ccccc3s2)nc2c1c(=O)[nH]c(=O)n2C` was inactive: -47.6%. On the same count and under the same terms, the value for `CCOC(=O)COc1ccc(-c2nnc(-c3ccccc3)o2)cc1` was 32.1%. As for `CCC(=O)Nc1ccc2oc(-c3cccc(C)c3)nc2c1`, the Potency was active: 0.501 µM. Regarding `Cc1ccc(Cl)cc1N1CCN(C(=O)C2CCN(S(=O)(=O)c3c(C)nn(C)c3C)CC2)CC1`, the “activity change, positive = activation” value was inactive: -30.5%. Still for that read-out and setting: for `Cc1cc2oc(=O)cc(CN3CCOCC3)c2cc1C` the value was 18.8%. On the same count and under the same terms, the value for `C=C1c2c(Cl)ccc(O)c2C(O)=C2C(=O)[C@@]3(O)C(O)=C(C(N)=O)C(=O)[C@@H](N(C)C)[C@@H]3[C@@H](O)[C@H]12` was inactive: -10.1% [at 20.6 µM]; that for `Cc1cc(C(=O)C(C)OC(=O)C2=NNC(=O)CC2)c(C)n1-c1ccc(OC(F)F)cc1` (stereo not drawn) was -42.2%; that for `CCC(=O)N1CCc2cc(Br)cc(S(=O)(=O)CCC(=O)NCCc3ccc(OC)c(OC)c3)c21` was 37.7%. Turning to `CCn1c(COc2ccccc2C)nnc1SCC(=O)Nc1ccc2c(c1)OCCO2`, the activity change, positive = activation came out at 27.2%.

With `O=C(COc1ccccc1)Nc1ccccc1NS(=O)(=O)c1cccs1`, the activity change, positive = activation stood at 3.89%.

With `COc1ccccc1N1CCN(C(=O)c2oc3cc(C)c(C)cc3c2C)CC1`, the activity change, positive = activation was -22.4%. On the same count and under the same terms, for `O=c1[nH]c(C2CCCN(S(=O)(=O)c3ccc(F)cc3)C2)nc2c1nnn2Cc1ccccc1` (stereo not drawn) the value was 30.2%.

`CC(C)(C)c1ccc(NC(=O)COC(=O)C2(C)CC2(Cl)Cl)cc1` (stereo not drawn): the activity change, positive = activation amounted to 60.4%. As to `O=c1nc(NCc2ccco2)sc2ncccc12`, the activity change, positive = activation is 34.7%. Same read-out and setting: the value for `NC(=O)CSc1cn(Cc2ccccc2)c2ccccc12` was inactive: -34.1%. Still for that read-out and setting: the value for `COc1cc2c(cc1OC)C(c1ccccc1)N(C(=O)CCl)CC2` (stereo not drawn) was -85.6%. Turning to `Cc1ncoc1C(=O)Nc1ncc([N+](=O)[O-])s1`, the Potency was active: 4.47 µM. Still for that read-out and setting: for `COc1ccc([N+](=O)[O-])cc1NCc1ccccc1` the value was active: 31.6 µM. With `COC(=O)c1sc(NC(=S)NC(=O)c2ccccc2F)nc1C`, the “activity change, positive = activation” value was inactive: -15.5%. As to `CCc1ccc2[nH]c(=O)c(C(c3nnnn3Cc3ccco3)N3CCC(C)CC3)cc2c1` (stereo not drawn), the activity change, positive = activation came out at 34.2%.

Turning to `CN1CCN(CC(=O)N2c3ccccc3C(C)(c3ccccc3)CC2(C)C)CC1` (stereo not drawn), the activity change, positive = activation worked out at 48.2%. In the case of `COc1ccc(-c2csc(NCc3ccco3)n2)cc1C`, the Potency was active: 31.6 µM. As for `COCC(=O)N1CCCc2ccccc21`, the activity change, positive = activation came to 45.2%. Same read-out and setting: the value for `CCn1c2ccccc2c2cc(C3C(C#N)=C(N)Oc4n[nH]c(COC)c43)ccc21` (stereo not drawn) was -92.8%; that for `c1csc(CNc2ncnc3ccc(-c4ccc5c(c4)OCO5)cc23)c1` was 22.4%; that for `COCC(=O)Nc1nc(-c2ccc(C)cc2)c(C)s1` was 31.6%. Still for that read-out and setting: for `CCCCCCCCNC(=O)CCNC(=O)c1ccc(C(C)(C)C)cc1` the value was inactive: -33.9%.

Turning to `Clc1ccc(-c2nc3nc4ccccc4nc3n2Cc2ccco2)cc1`, the Potency is active: 17.8 µM.

Turning to `COc1ccc(S(=O)(=O)N(CCc2ccccc2)CC(=O)NC(C)C)cc1`, the activity change, positive = activation amounted to 34.6%. On the same count and under the same terms, for `COc1ccc(N2CCN(C(=O)C3CCCN(C(=O)c4cc5sccc5n4C)C3)CC2)cc1` (stereo not drawn) the value was inactive: -34.1%; for `Cc1cc(C)n2nc(N)c(N=Nc3ccc(Cl)cc3)c2n1`, inactive: -17.3%. Same read-out and setting: the value for `C/C(=C\C(=O)c1ccc(Br)cc1)Nc1ccc(Cl)cc1` was 132%.

Turning to `O=C(c1cc(C(F)(F)F)cc(C(F)(F)F)c1)N1CCC2(CC1)CCN(c1ccccn1)CC2`, the “activity change, positive = activation” value was inactive: -45%. On the same count and under the same terms, for `Cc1cccc(NC(=O)COc2ccccc2C)n1` the value was 33.1%.

With `Cc1cccc(N2CCN(C(=O)C3CCCN(S(=O)(=O)c4ccc(Br)s4)C3)CC2)c1C` (stereo not drawn), the “activity change, positive = activation” value was inactive: -56%. Still for that read-out and setting: for `COc1ccc(CNc2nc3ccccc3n2Cc2ccc(C)cc2)cc1OC` the value was -69.9%.

For the molecule `Cc1ccc2nc(CSc3nc(C)cc(C)c3C#N)[nH]c2c1`, the Potency was active: 4.47 µM. In the case of `CCOc1ccc(C)cc1S(=O)(=O)n1ccc(C)n1`, the activity change, positive = activation was 39.6%.

Turning to `CSc1nnc(-c2cc3c(s2)-c2ccccc2CC3)o1`, the Potency was active: 17.8 µM. Take `Cc1cc(C)nc(N(C#N)CC(=O)c2ccccc2)n1`: the activity change, positive = activation worked out at 41.2%. Still for that read-out and setting: for `Cc1ccc2c(c1)c(=O)c1ccccc1n2CCCC(=O)Nc1ccc(C)c(F)c1` the value was inactive: -61.3%. For `CC(=Nc1ccc(C)cc1)c1sc2ccccc2c1O`, the Potency was active: 0.631 µM. On to `CCCCOc1ccc(C2(C(=O)O)CCCC2)cc1`, for which the activity change, positive = activation was determined as 38.4%. Same read-out and setting: for `CC(=O)c1c(C)[nH]c(C(=O)OCCCCN2C(=O)c3ccccc3C2=O)c1C` the value was inactive: -48.4%.

With `CCCN1C=CC(=C/C=C(\C#N)C(=O)OCC)C=C1`, the Potency was active: 14.1 µM. As to `COC(=O)c1cc(COC(=O)c2ccc(OC)c(S(=O)(=O)N3CCCC3)c2)oc1C`, the activity change, positive = activation amounted to 26%. The same measure, in the same setting: the value for `CCCNC(=O)NC(=O)COC(=O)CC(NC(N)=O)c1ccc(Cl)cc1` (stereo not drawn) was -31.1%. Still for that read-out and setting: for `Cc1c(NC(=O)C2CC=CCC2C(=O)O)c(=O)n(-c2ccccc2)n1C` (stereo not drawn) the value was 22.8%; for `S=C(NCCc1ccccc1)Nc1ccccn1`, 64.2%.

In the case of `COc1ccc(C(=O)N2CCN(c3nc4cc(C)ccc4cc3C#N)CC2)c(OC)c1`, the “activity change, positive = activation” value is inactive: -38.7%. With `Cc1cc(NC(=O)CSc2nc3ccsc3c(=O)n2CCCC(=O)NCCc2ccccc2)no1`, the activity change, positive = activation is -20.9%.
